± gives the expanded uncertainty stated by the source.

This data set can be described thus: relative permittivity at various frequencies (dimensionless); xn = mol fraction of the nth substance listed. The settings on record: 303.15 K; 101 kPa; Liquid; Frequency=1 MHz; Capacitive measurement method at f=1 MHz; x2 = 0.

Consider `CC(=O)N(C)C` [N,N-dimethylethanamide] + NCCO, for which the relative permittivity was found to be 37.72 ± 0.23.

These data come from the NIST ThermoML archive (doi:10.1016/j.fluid.2010.02.038).
